US20160250213A1, “FORMULATIONS OF AZAINDOLE COMPOUNDS” (priority 2013, published 2016)
For at least one compound, name, drawing or mass did not settle the structure.

Legend:
Assay type in all cases: cell-based, influenza A virus
Details in all cases: read-out: Cell Protection Assay EC50 ± SD
[1] = system: A/Uruguay/716/2007 (H3N2)
[2] = system: A/Wisconsin/67/2005 (H3N2)
A/NWS/33 (H1N1) = system: A/NWS/33 (H1N1)
A/Weiss/43 (H1N1) = system: A/Weiss/43 (H1N1)
[3] = system: A/Puerto Rico/8/34 (H1N1)
A/Texas/48/2009 (H1N1) = system: A/Texas/48/2009 (H1N1)
[4] = system: A/California/07/2009 NYMC X-179A (H1N1)
[5] = system: A/Mexico/4108/2009 (H1N1)
A/Georgia/20/2006 (H1N1) = system: A/Georgia/20/2006 (H1N1)
A/Texas/12/2007 (H3N2) = system: A/Texas/12/2007 (H3N2)
[6] = system: A/Port Chalmers/1/73 (H3N2)
[7] = system: A/Virginia/01/2006 (H1N1)
[8] = system: A/St. Petersburg/8/2006 (H1N1)
A/WS/33 (H1N1) = system: A/WS/33 (H1N1)
[9] = system: A/California/07/2009 (H1N1)
A/Nebraska/1/2006 (H3N2) = system: A/Nebraska/1/2006 (H3N2)

## O=C(O)[C@H]1C2CCC(CC2)C1Nc1nc(-c2c[nH]c3ncc(F)cc23)ncc1F (stereo partly shown) [Compound (1)]
[1]
  EC50: 3.5 ± 5.1 nM
[2]
  EC50: 1.8 ± 0.24 nM
A/NWS/33 (H1N1)
  EC50: 0.73 ± 0.1 nM
A/Weiss/43 (H1N1)
  EC50: 0.31 ± 0.23 nM
[3]
  EC50: 3.2 ± 1.8 nM
A/Texas/48/2009 (H1N1)
  EC50: 2.8 ± 3.2 nM
[4]
  EC50: 2.7 ± 1.8 nM
[5]
  EC50: 2.7 ± 1.8 nM
A/Georgia/20/2006 (H1N1)
  EC50: 2.6 ± 3.8 nM
A/Texas/12/2007 (H3N2)
  EC50: 0.65 ± 0.22 nM
[6]
  EC50: 0.54 ± 0.11 nM
[7]
  EC50: 0.42 ± 0.24 nM
[8]
  EC50: 0.88 ± 0.69 nM
A/WS/33 (H1N1)
  EC50: 3.2 ± 4.3 nM
[9]
  EC50: 1.8 ± 1.6 nM
A/Nebraska/1/2006 (H3N2)
  EC50: 2.1 ± 1.3 nM
